PubChem BioAssay AID504764, Drosophila RNAi Screening Center – 2011
The deposit covers about 22,000 reagents; this is an unselected part of those with a known target gene and a result. Of all reagents, 403 (1.9%) are marked active. 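Unnormalised raw counts per well; ratio z-scores behind the hit calls and whether each hit raises or lowers signal are not deposited.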 Unmarked entries are inactive. The record does not give: the amount of reagent.

Test: 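Genes whose knock-down alters Notch-dependent transcription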 (primary screen)
Cell system: Drosophila Kc167 cells
Reagent: long dsRNA against Drosophila genes
Time to read-out: about 5 days (4 days dsRNA, then 24 h after transfection)
Treatment: transfection of constitutively active membrane-tethered Notch lacking the extracellular domain, read 24 h later
Detection: 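Firefly luciferase from an E(spl)m3 reporter with active Notch, plus control-promoter and uninduced reporter wells for normalisation; unnormalised counts, duplicate wells a and b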
Scale: induced reporter light, run 1, well a and induced reporter light, run 1, well b: higher = more light from the Notch target reporter with active Notch; control promoter light, run 1, well a and control promoter light, run 1, well b: higher = more light from the viral control promoter (cell number, transfection, viability); uninduced reporter light, run 1, well a: higher = more light from the Notch target reporter without active Notch
Call rule: 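Hit if the duplicate-averaged log2 ratio of induced to control-promoter light gives a plate-wise z beyond ±2, or induced to uninduced beyond ±1.8; weak-control or discordant-duplicate wells dropped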
Calls: active = modifier hit (raised or lowered Notch signal); inactive = not a hit

target,DRSC id,"induced reporter light, run 1, well a","induced reporter light, run 1, well b","control promoter light, run 1, well a","control promoter light, run 1, well b","uninduced reporter light, run 1, well a"
CG34310,DRSC00943,1.22e5,1.47e5,2.53e5,2.42e5,11200
Trhn,DRSC08621,94715,85540,1.98e5,1.84e5,9760
CG7668,DRSC10901,1.06e5,1.40e5,73740,73145,7615
IKKepsilon,DRSC03550,85005,62485,63875,54870,4185
l(1)G0320,DRSC18255,1.63e5,1.62e5,2.01e5,1.90e5,15975
CYTB (retired record),DRSC21272,1.12e5,1.12e5,1.15e5,1.51e5,11990
VhaAC45RP,DRSC15423,1.85e5,1.87e5,2.62e5,2.14e5,10445
Dad,DRSC16642,2.35e5,2.58e5,3.12e5,3.62e5,19285
Smug,DRSC15762,2.19e5,2.28e5,2.59e5,2.89e5,18595
nonA-l,DRSC17017,2.09e5,1.77e5,2.35e5,2.49e5,16455
Sec23,DRSC12387,1.67e5,1.74e5,1.08e5,1.02e5,12515
OstDelta,DRSC06980,83760,87625,1.58e5,1.53e5,5428
CG14626,DRSC18631,1.59e5,1.26e5,2.19e5,2.25e5,9845
Hpf1,DRSC12202,1.31e5,1.55e5,82730,87530,11190
Noc1,DRSC10921,93475,1.36e5,67320,28385,10592
CG5162,DRSC19935,99355,86720,1.08e5,81760,13010
CG32563,DRSC19934,21500,21775,20900,17315,2400
Phlpp,DRSC02065,44235,36790,42445,35400,1685
cl,DRSC02118,1.58e5,1.64e5,1.66e5,1.75e5,15732
Amnionless,DRSC00317,1.50e5,1.06e5,1.00e5,68960,9920

Records above whose target name starts with S or s (2):
target,DRSC id,"induced reporter light, run 1, well a","induced reporter light, run 1, well b","control promoter light, run 1, well a","control promoter light, run 1, well b","uninduced reporter light, run 1, well a"
Smug,DRSC15762,2.19e5,2.28e5,2.59e5,2.89e5,18595
Sec23,DRSC12387,1.67e5,1.74e5,1.08e5,1.02e5,12515
